According to EP1043318A1 (priority 1997, dated 1999):
For at least one compound, name, drawing or mass did not settle the structure.

Tested on: M. tuberculosis 16R
Type: cell-based
Settings: strain resistant to control preparations; concentration of the preparation 50.0 g/l (table title); incubated 30 days

Structure (SMILES): CO[C@H]1/C=C/O[C@@]2(C)Oc3c(C)c(O)c4c(O)c(c(/C=N/N5CCN(C)CC5)c(O)c4c3C2=O)NC(=O)/C(C)=C\C=C\[C@H](C)[C@H](O)[C@@H](C)[C@@H](O)[C@@H](C)[C@H](OC(C)=O)[C@@H]1C [Rifampicin]
- M. tuberculosis 16R growth: growth
